No constants are given. Whether binding was seen depends on the method and setting. Some results given as binding are weak or reduced against the parent protein; the word gives no strength.
Assays:
[1] = molecular target: MqsR, his6-tag cleaved, co-expressed with MqsA-N (E. coli) (UniProt Q46865); experiment: crystal structure; MqsR:MqsA-N complex, 2.0 Å, MAD; sitting drop at 4°C, 0.1 M Bis-Tris pH 5.5, 25% PEG3350; two complexes in the asymmetric unit; both purified
[2] = molecular target: MqsR (his-tagged), co-expressed with full-length MqsA (E. coli) (UniProt Q46865); experiment: co-purification by the his-tag; MqsR his-tagged, MqsA-F untagged, co-expressed

By UniProt entry, the sequences of proteins in these tests, tags left out. Where a name states a change or a piece, a line headed by the entry shows the natural chain unless it says otherwise.
UniProt Q46865: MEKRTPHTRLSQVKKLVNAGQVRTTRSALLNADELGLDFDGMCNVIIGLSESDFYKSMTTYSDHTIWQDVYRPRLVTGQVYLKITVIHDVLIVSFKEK
UniProt Q46864: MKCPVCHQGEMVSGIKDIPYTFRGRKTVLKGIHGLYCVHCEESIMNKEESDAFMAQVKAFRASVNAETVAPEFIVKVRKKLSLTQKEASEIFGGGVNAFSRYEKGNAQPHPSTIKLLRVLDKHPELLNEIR

Substance	binding [1]	binding [2]
MqsA N-terminal domain (MqsA-N), untagged, co-expressed with MqsR (from UniProt Q46864 1-76) (domain or fragment)	binds	–
Full-length MqsA (MqsA-F), untagged, co-expressed with MqsR (from UniProt Q46864 1-131)	–	binds

From paper PMC2791442
